# Assay results published in PubChem BioAssay AID504467 (National Center for Advancing Translational Sciences (NCATS), 2011).
# The campaign covered roughly 330,000 compounds. About 7,700 (2.3%) were called active. The shares of active, inactive and inconclusive entries below differ from those in the screen. The call rests on the fitted dose curve; in most records, active means well fitted inhibition curve with a large enough effect; inconclusive means small, poorly fitted or top-dose-only effect, or effect the other way; inactive means flat fitted curve, though single readings scatter. A potency beside an inconclusive call is a rough fit, not a confirmed value.
# Experiment: qHTS screen for small molecules that inhibit ELG1-dependent DNA repair in human embryonic kidney (HEK293T) cells expressing luciferase-tagged ELG1; further: nearly all actives have a fitted effect of over 55% in size
# Conditions: HEK293T ELG1-luciferase reporter, luminescence, 16 h, DNA damage induced by 5-fluorouridine; activity change, negative = inhibition: at 46.1 µM (top of the series)
# Procedure, shortened: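 HEK293T cells expressing luciferase-tagged ELG1 (2,000/well) received 5-Fluorouridine plus compound or DMSO for 16 hr at 37 °C. Luciferase was read by ONE-Glo luminescence after 30 min at room temperature.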
# On the % scale 0 is the no-effect control and ±100 the full control effect; potency means the concentration at half of the fitted maximal effect.
SMILES,"activity change, negative = inhibition",Potency
COc1cc(C2C(C(=O)c3cc4ccccc4o3)=C(O)C(=O)N2CCN2CCOCC2)ccc1OCCC(C)C (configuration not stated),inactive: -0.426%,–
O=c1oc(-c2ccccc2F)nc2scc(-c3ccccc3)c12,–,"inconclusive: 23.1 µM [activator, partial curve]"
CCOC(=O)C1CCCN(C(=O)c2cc3cc(F)ccc3[nH]2)C1 (configuration not stated),–,"inconclusive: 32.6 µM [inhibitor, partial curve, poor fit]"
CCCCCn1cnc2sc(CC)cc2c1=O,–,"inconclusive: 9.2 µM [activator, partial curve]"
CC1CCN(C(=O)Cn2c(SCC(=O)Nc3nccs3)nc3ccccc32)CC1,–,"inconclusive: 29.1 µM [inhibitor, single point]"
N#Cc1ccc(CN2CCN(C(=O)CCNS(=O)(=O)c3ccc(F)c(F)c3)CC2)cc1,inactive: 0.297%,–
C=CCc1cccc2cc(C(=O)N3CCN(C(=O)c4ccccc4)CC3)c(=O)oc12,inactive: 6.99%,–
Cc1oc(-c2ccccc2F)nc1CS(=O)(=O)CC(=O)NCCCN1CCc2ccccc2C1,–,"inconclusive: 25.9 µM [inhibitor, partial curve, poor fit]"
O=C(Oc1cccc2cccnc12)c1cccc(N2C(=O)C3C4CCC(C4)C3C2=O)c1 (configuration not stated),–,"inconclusive: 29.1 µM [inhibitor, single point]"
Cc1noc(C)c1S(=O)(=O)Nc1ccc2c(c1)C(=O)N([C@H](C)CO)C[C@H](C)[C@@H](CN(C)C(=O)NC(C)C)O2,–,"inconclusive: 20.6 µM [inhibitor, partial curve, poor fit]"
O=C(c1ccc(F)cc1)N1CCN(c2ccc([N+](=O)[O-])c(N3CCCCC3)c2)CC1,–,"inconclusive: 23.1 µM [inhibitor, single point]"
O=C(NC1CCCCC1)C(c1cccnc1)N(C(=O)CCl)c1cccc(Cl)c1 (configuration not stated),–,active: 20.6 µM
CN(C(=O)COC(=O)C1COc2ccccc2O1)c1c(N)n(Cc2ccccc2)c(=O)[nH]c1=O (configuration not stated),inactive: 9.69%,–
COc1ccc(C2=NN(CN3C(=O)C(=O)c4ccccc43)C(c3ccc(Br)cc3)C2)cc1 (configuration not stated),–,"inconclusive: 18.4 µM [activator, single point]"
CSc1cccc(-n2cc(-c3ccc4c(c3)OCO4)[nH]c2=O)c1,–,"inconclusive: 23.1 µM [activator, single point]"
CCN1C(=O)[C@@H]2[C@@H](c3ccc(-c4ccc(OC)cc4)cc3)N3CCCC[C@@]3(C(=O)OC)[C@@H]2C1=O,–,"inconclusive: 12.6 µM [inhibitor, single point]"
O=C(COc1ccc(Cl)c(Cl)c1)NN1C(=O)C2C(C1=O)C1C=CC2C12CC2 (configuration not stated),inactive: 10.3%,–
Cc1c(-c2ccccc2)n[nH]c1C(=O)N=Nc1c(O)[nH]c2ccccc12,–,"inconclusive: 29.1 µM [activator, single point]"
CC(Nc1nc(=S)nc(Nc2ccc(F)cc2)[nH]1)c1ccccc1 (configuration not stated),inactive: -20.8%,–
Cc1cc(C(=O)OCc2nnc(-c3ccccc3)o2)c(C)n1-c1ccccc1,–,"inconclusive: 29.1 µM [inhibitor, single point]"
CCCc1ccc(Oc2cc(C)nc(N3CCOCC3)n2)cc1,–,"inconclusive: 18.4 µM [activator, single point]"
O=C(Nc1ccc(Cl)cn1)c1ccc(Br)c(S(=O)(=O)N2CCCCC2)c1,inactive: -3.69%,–
CC[C@@H]1C(c2ccc(F)cc2)=NN(c2ccc(Br)cc2)[C@H]1C(=O)N1CCOC1=O,inactive: 7.87%,–

SMILES,"activity change, negative = inhibition",Potency
CC1CC(NNC(=O)c2ccccc2)=Nc2ccccc2N1C (configuration not stated),inactive: -14.5%,–
O=C(NCCCn1ccnc1)c1ccc(Cl)cc1,–,"inconclusive: 16.4 µM [inhibitor, partial curve]"
CCCc1nnc(NC(=O)c2cccs2)s1,–,"inconclusive: 18.4 µM [activator, partial curve]"
O=C(/C=C/c1ccccc1)NC(=S)Nc1ccccc1O,–,"inconclusive: 20.6 µM [activator, partial curve]"
Cc1cc(C(=O)CN2CCC(C)CC2)c(C)n1-c1ccc(F)cc1,–,"inconclusive: 7.31 µM [activator, partial curve]"
Cn1c(=O)[nH]c(=O)c2[nH]c(N(Cc3ccccc3)Cc3ccccc3)nc21,–,"inconclusive: 29.1 µM [inhibitor, single point]"
CN(C)S(=O)(=O)Oc1cc(Cl)ccc1C(=O)Nc1ccc(F)cc1F,–,"inconclusive: 0.231 µM [inhibitor, single point]"
CSc1nc2ccc(Cl)cc2[nH]1,inactive: 2.93%,–
CC(=O)Nc1ccc(S(=O)(=O)NC(C)C(=O)NCCc2ccc(F)cc2)cc1 (configuration not stated),inactive: -5.16%,–
C[C@H](CO)N1C[C@H](C)[C@@H](CN(C)C(=O)NC2CCCCC2)Oc2ccc(NC(=O)Cn3cnnn3)cc2C1=O,–,"inconclusive: 23.1 µM [activator, single point]"
Clc1ccc2oc(-c3ccccn3)nc2c1,–,"inconclusive: 3.26 µM [activator, partial curve, poor fit]"
CCCNC(=O)c1ccc2c(c1)C1C3CCC(C3)C1C(c1ccccc1)N2 (configuration not stated),–,"inconclusive: 18.4 µM [inhibitor, single point]"
O=C(CCl)Nc1ccccc1C(=O)c1ccccc1,inactive: 8.79%,–
COc1ccccc1N1C(=O)CC(Sc2nc(C)cc(C)n2)C1=O (configuration not stated),inactive: 9.4%,–
COc1cc2c(-c3cc(F)cc(F)c3)c(-c3ccsc3)oc(=O)c2cc1OC,–,"inconclusive: 0.0164 µM [inhibitor, full curve, poor fit]"
O=C(Nc1cc(C(F)(F)F)cc(C(F)(F)F)c1)Nc1cnn(-c2ccc([N+](=O)[O-])cc2)c1C(F)(F)F,–,"inconclusive: 4.11 µM [inhibitor, full curve]"
C=C(C)Cn1cnc2c(oc3nc4c(cc32)CCCC4)c1=O,–,"inconclusive: 16.4 µM [activator, partial curve]"
COC(=O)C1=C(C)N(C(C)C)C(=O)C1(NC(C)=O)C(F)(F)F (configuration not stated),inactive: 7.19%,–
CCOCCCNC(=O)c1ccccc1Br,–,"inconclusive: 16.4 µM [activator, partial curve, poor fit]"
Cc1cc([N+](=O)[O-])nn1CC(=O)N/N=C/c1ccc(O)cc1O,–,"inconclusive: 23.1 µM [inhibitor, single point]"
c1ccc(COc2ccc(OCCCCN3CCCCC3)cc2)cc1,–,"inconclusive: 23.1 µM [activator, single point]"
C=CCNC(=S)NNC(=O)c1cccc2ccccc12,inactive: 2.72%,–
O=C(CSc1nc(CCC2CCCC2)nc2ccccc12)NCc1ccc2c(c1)OCO2,–,"inconclusive: 20.6 µM [inhibitor, partial curve, poor fit]"

SMILES,"activity change, negative = inhibition",Potency
CCC(C)c1ccccc1NC(=S)NC(=O)c1ccco1 (configuration not stated),–,"inconclusive: 18.3 µM [activator, partial curve, poor fit]"
N#C/C(=C\c1ccc([N+](=O)[O-])cc1)C(=O)Nc1ccccc1O,–,"inconclusive: 16.4 µM [activator, partial curve]"
COc1ccc(OCCSc2ncc(CO)n2C)cc1,–,"inconclusive: 25.9 µM [activator, single point]"
CC(NCCN(C)C)C(=O)C12CC3CC(CC(C3)C1)C2 (configuration not stated),–,"inconclusive: 20.6 µM [activator, partial curve]"
C=CC[C@@H](Cc1ccc(F)cc1)C(=O)OC[C@H]1CCCN1C(=O)[C@H](CC=C)CC(=O)N[C@H](CO)Cc1ccccc1,–,active: 23.1 µM
COc1cc(C(=O)OCc2ccccc2C#N)ccc1OCC(=O)N1CCOCC1,inconclusive: 14.1% [activator],–
Cc1ccccc1CSc1nnc(-c2cnccn2)n1C,–,"inconclusive: 13 µM [activator, partial curve]"
CCCCN1C(=O)Cc2c1nc(N)c1c(N)nc(N(CCC)CCC)c(C#N)c21,–,"inconclusive: 29.1 µM [inhibitor, single point]"
COC(=O)Cc1ccc(NC(=S)N2CCCCC2C)cc1 (configuration not stated),–,"inconclusive: 20.6 µM [activator, single point]"
Cc1nc(-c2ccc(C(F)(F)F)cc2)sc1C(=O)NN,–,"inconclusive: 32.6 µM [inhibitor, single point]"
NS(=O)(=O)c1ccc(NC(=O)COC(=O)c2cccc(S(=O)(=O)N3CCCC3)c2)cc1,inactive: 0.552%,–
CCOC(=O)c1c(C)sc2c1N(C(=O)CCl)c1cc(Cl)ccc1S2,–,"inconclusive: 29.1 µM [inhibitor, single point]"
COc1ccc(C(CCN2CCOCC2)c2c(O)cc(OC)cc2OC)cc1 (configuration not stated),inactive: -0.958%,–
c1cc2c3c(cccc3c1)NC1(CCC3(CC1)Nc1cccc4cccc(c14)N3)N2,–,"inconclusive: 20.6 µM [inhibitor, single point]"
COc1ccc(S(=O)(=O)N(C)CC(=O)Nc2cccc(C(C)=O)c2)cc1,–,"inconclusive: 14.6 µM [inhibitor, partial curve, poor fit]"
Cc1ccc(CNC(=O)CSc2ccsc2[N+](=O)[O-])cc1,–,"inconclusive: 23.1 µM [activator, partial curve]"
Cc1oc2cc3oc(=O)c(CCC(=O)NCc4ccccn4)c(C)c3cc2c1C,–,"inconclusive: 4.11 µM [inhibitor, single point]"
CC(C)c1nc2oc3c(NCc4cccnc4)ncnc3c2c2c1CCC2,–,active: 8.2 µM
COc1cc2cc(NC(C)=O)cc(NCc3ccccc3)c2cc1OC,–,"inconclusive: 29.1 µM [inhibitor, single point]"
CN(C)S(=O)(=O)c1cccc(NC(=S)NC(=O)C2CCCCC2)c1,–,"inconclusive: 23.1 µM [inhibitor, single point]"
O=C(Nc1nccs1)c1cccc(S(=O)(=O)N2CCCC2)c1,–,"inconclusive: 18.3 µM [inhibitor, single point]"

# Pulled by structure from above:
SMILES,"activity change, negative = inhibition",Potency
Cc1nc(-c2ccc(C(F)(F)F)cc2)sc1C(=O)NN,–,"inconclusive: 32.6 µM [inhibitor, single point]"
CCC(C)c1ccccc1NC(=S)NC(=O)c1ccco1 (configuration not stated),–,"inconclusive: 18.3 µM [activator, partial curve, poor fit]"
COc1cc(C(=O)OCc2ccccc2C#N)ccc1OCC(=O)N1CCOCC1,inconclusive: 14.1% [activator],–
Cc1oc2cc3oc(=O)c(CCC(=O)NCc4ccccn4)c(C)c3cc2c1C,–,"inconclusive: 4.11 µM [inhibitor, single point]"
